Values from PubChem BioAssay AID504744 (Drosophila RNAi Screening Center, 2011)

Test: 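Identify dsRNAs that increase or decrease phospho-dAkt after insulin treatment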 (primary screen)
Cells: Drosophila Kc167 cells
Reagent: long dsRNA against Drosophila genes, 250 ng dsRNA per well of a 384-well plate
Duration: 3 days of knock-down, then overnight serum-free starvation before stimulation
Challenge: bovine insulin at 387 nM for 10 minutes after 12 h without serum
Measured: 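In-cell antibody fluorescence for phospho-dAkt in each well over DNA-dye signal, with log2 residuals expressed as z-scores adjusted for cell count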
Rule for the call: 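Under insulin, a gene counts as a hit if the average z-score of two replicates lies above 2.5 or below -2.5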
The screen tested about 23,000 reagents; this is an unselected part of those with a known target gene and a result. In the full data, 98 (0.43%) got an active call. 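Only hit calls are given; the phospho-dAkt signals, z-scores and hit direction were not deposited.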 Names joined by + are all predicted targets of the reagent.

| gene | amplicon | outcome |
| --- | --- | --- |
| aqrs | DRSC14724 | inactive |
| Spn88Ea | DRSC17061 | inactive |
| holn1 | DRSC02827 | inactive |
| holn1 | DRSC22822 | inactive |
| Top2 | DRSC03459 | inactive |
| CG43896 | DRSC10754 | inactive |
| CG1603 | DRSC06602 | inactive |
| bbg | DRSC11077 | inactive |
| bbg | DRSC11079 | inactive |
| CG5934 | DRSC15922 | inactive |
| CG42615 | DRSC05121 | inactive |
| CG33458 | DRSC22891 | inactive |
| CG13806 | DRSC08341 | inactive |
| CG43999 | DRSC14605 | inactive |
| CG3764 | DRSC10375 | inactive |
| CG12995 | DRSC19515 | inactive |
| CG13560 | DRSC04198 | inactive |
| CG11929 | DRSC00339 | inactive |
| CG15177 | DRSC12557 | inactive |
| Chsy | DRSC20175 | inactive |
| Chsy | DRSC20176 | inactive |
| Doc1 | DRSC11146 | inactive |
| CG17085 (retired record) | DRSC02565 | inactive |
| CG17085 (retired record) | DRSC02566 | inactive |
| Menl-2 + Menl-1 | DRSC07469 | inactive |
| Menl-2 + Menl-1 | DRSC07470 | inactive |
| CG9386 | DRSC16485 | inactive |
| CG44838 | DRSC10330 | inactive |
| CG44838 | DRSC10371 | inactive |
| CG10470 | DRSC02061 | inactive |
| l(2)k05911 | DRSC02523 | inactive |
| CG4743 | DRSC15636 | inactive |
| Surf4 | DRSC16875 | inactive |
| Fam92 | DRSC02952 | inactive |
| 5-HT1A | DRSC05030 | inactive |
| CG10466 | DRSC02060 | inactive |
| PGRP-LD + Cralbp + Pmi | DRSC09743 | inactive |
| CG11566 (retired record) + stg1 | DRSC20473 | inactive |
| CG11566 (retired record) + stg1 | DRSC20481 | inactive |
| CG11566 (retired record) + stg1 | DRSC20482 | inactive |
| CG11566 (retired record) + stg1 | DRSC20483 | inactive |
| CG3909 | DRSC14150 | inactive |
| CG1246 | DRSC08275 | inactive |
| CG14538 (retired record) | DRSC02396 | inactive |
| gsb-n | DRSC04021 | inactive |
| gsb-n | DRSC04693 | inactive |
| CG12209 | DRSC06119 | inactive |
| ND-B12 | DRSC04060 | inactive |
| Qtzl | DRSC01221 | inactive |
| CG11113 | DRSC06039 | inactive |
| Osi19 | DRSC12569 | inactive |
| APC10 | DRSC06071 | inactive |
| CG15553 | DRSC15091 | inactive |
| kst | DRSC08719 | inactive |
| Fas3 | DRSC01638 | inactive |
| Fas3 | DRSC03326 | inactive |
| Fas3 | DRSC22776 | inactive |
| tobi | DRSC14435 | inactive |
| PpD5 | DRSC04641 | inactive |
| Ack-like | DRSC07500 | inactive |
| Isha | DRSC04456 | inactive |
| Set1 | DRSC20930 | inactive |
| Set1 | DRSC20931 | inactive |
| eIF2A | DRSC11825 | inactive |
| puc | DRSC17034 | inactive |
| Mo25 | DRSC11224 | inactive |
| CG31370 | DRSC21453 | inactive |
| Tmep | DRSC08215 | inactive |
| CG15269 | DRSC01942 | inactive |
| Vml | DRSC17695 | inactive |
| Vml | DRSC18529 | inactive |
| MESR4 | DRSC06901 | inactive |
| CG2698 | DRSC15447 | inactive |
| Gbeta13F | DRSC20247 | inactive |
| gdrd | DRSC10020 | inactive |
| CG8927 | DRSC16458 | inactive |
| CG10958 | DRSC17768 | inactive |
| CG15366 (retired record) | DRSC18039 | inactive |
| CG42780 | DRSC17514 | inactive |
| Jheh1 | DRSC06529 | inactive |
| CG17683 | DRSC21160 | inactive |
| crb | DRSC16927 | inactive |
| gem | DRSC06093 | inactive |
| gem | DRSC06847 | inactive |
| CG15696 | DRSC15118 | inactive |
| Der-1 | DRSC00301 | inactive |
| Rap2l | DRSC04646 | inactive |
| CG13284 | DRSC02256 | inactive |
| t | DRSC17815 | inactive |
| Pepck2 | DRSC06013 | inactive |
| Tnpo-SR | DRSC00546 | inactive |
| mRpL3 | DRSC20100 | inactive |
| CG13847 | DRSC14697 | inactive |
| sle | DRSC14557 | inactive |
| CG30470 (retired record) | DRSC05553 | inactive |
| CG30470 (retired record) | DRSC06260 | inactive |
| CG30470 (retired record) | DRSC06261 | inactive |
| CG30470 (retired record) | DRSC06777 | inactive |
| CG11674 | DRSC19414 | inactive |
| CG10353 | DRSC19354 | inactive |
| CG14440 | DRSC17933 | inactive |
| CG32195 | DRSC09533 | inactive |
| PGRP-LD + Pmi | DRSC10512 | inactive |
| PGRP-LD + Pmi | DRSC10513 | inactive |
| CG5162 | DRSC19935 | inactive |
| Rad9 | DRSC11263 | inactive |
| CG7083 | DRSC11136 | inactive |
| Vdup1 | DRSC08586 | inactive |
| CR10032 | DRSC12499 | inactive |
| CG10953 | DRSC06021 | inactive |
| RN-tre | DRSC07521 | inactive |
| CG14453 | DRSC11710 | inactive |
| RPA3 | DRSC19658 | inactive |
| CG18675 | DRSC08536 | inactive |
| CG31191 | DRSC13455 | inactive |
| CG31191 | DRSC15214 | inactive |
| CG31191 | DRSC15215 | inactive |
| shep | DRSC08748 | inactive |
| shep | DRSC09765 | inactive |
| shep | DRSC09771 | inactive |
| Gr10b | DRSC19477 | inactive |
| tun | DRSC05592 | inactive |
| tun | DRSC07127 | inactive |
| Cln3 | DRSC10520 | inactive |
| Tsp42Eb + CG30160 | DRSC04961 | inactive |
| Tsp42Eb + CG30160 | DRSC06791 | inactive |
| CG11353 | DRSC08182 | inactive |
| Zmynd8 | DRSC15310 | inactive |
| CG7741 | DRSC07035 | inactive |
| Nhe3 | DRSC03380 | inactive |
| CG15475 | DRSC02486 | inactive |
| ome | DRSC09322 | inactive |
| ome | DRSC10282 | inactive |
| ome | DRSC11380 | inactive |
| CG6262 | DRSC06971 | inactive |
| CG1142 | DRSC12531 | inactive |
| Gcat | DRSC09719 | inactive |
| CG13829 | DRSC14679 | inactive |
| Ercc1 | DRSC07424 | inactive |
| B4 | DRSC01868 | active |
| B4 | DRSC03175 | inactive |
| cno | DRSC12054 | inactive |
| cno | DRSC12374 | inactive |
| Etf-QO | DRSC06111 | inactive |
| edl | DRSC06516 | inactive |
| Atg10 + CG12822 | DRSC06796 | inactive |
| RpL39 | DRSC04651 | inactive |
| CG14441 | DRSC17934 | inactive |
| CG3368 | DRSC15485 | inactive |
| CG5597 | DRSC04517 | inactive |
| ps | DRSC15149 | inactive |
| ps | DRSC15151 | inactive |
| ps | DRSC15152 | inactive |
| ps | DRSC16388 | inactive |
| Irk1 | DRSC16106 | inactive |
| Baldspot | DRSC09671 | inactive |
| larp | DRSC14728 | inactive |
| larp | DRSC16984 | inactive |
| larp | DRSC21856 | inactive |
